Data from PMC3589465.
Results are given in words; binding and its absence hold for the method and conditions named. Binding seen in cells or lysates may run through a third protein. Some binding calls cover weakened binding; strength is not graded here.

Sequences of proteins named here, by UniProt entry; tags and fusion partners are left off. Residues count along the entry.
UniProt Q60751, residues 742-1373: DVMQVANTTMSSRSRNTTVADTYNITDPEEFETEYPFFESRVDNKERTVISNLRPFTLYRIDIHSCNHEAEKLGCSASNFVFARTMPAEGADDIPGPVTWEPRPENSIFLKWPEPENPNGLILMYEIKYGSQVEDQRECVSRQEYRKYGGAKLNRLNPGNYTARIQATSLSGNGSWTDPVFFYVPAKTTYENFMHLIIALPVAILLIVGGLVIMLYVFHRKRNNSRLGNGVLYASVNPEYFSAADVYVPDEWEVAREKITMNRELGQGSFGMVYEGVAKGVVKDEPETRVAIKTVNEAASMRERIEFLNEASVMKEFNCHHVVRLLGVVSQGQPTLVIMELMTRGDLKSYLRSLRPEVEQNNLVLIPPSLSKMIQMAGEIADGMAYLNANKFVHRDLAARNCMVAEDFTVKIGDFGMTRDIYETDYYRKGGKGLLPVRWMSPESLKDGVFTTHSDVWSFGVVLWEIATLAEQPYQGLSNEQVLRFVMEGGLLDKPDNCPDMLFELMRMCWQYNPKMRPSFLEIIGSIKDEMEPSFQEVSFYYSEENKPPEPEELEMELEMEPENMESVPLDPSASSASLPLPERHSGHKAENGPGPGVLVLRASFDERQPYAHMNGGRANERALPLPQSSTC

B1: Caveolin-1 (protein, UniProt P49817 1-178)
chain: MSGGKYVDSEGHLYTVPIREQGNIYKPNNKAMADEVTEKQVYDAHTKEIDLVNRDPKHLNDDVVKIDFEDVIAEPEGTHSFDGIWKASFTTFTVTKYWFYRLLSTIFGIPMALIWGIYFAILSFLHIWAVVPCIKSFLIEIQCISRVYSIYVHTFCDPLFEAIGKIFSNIRISTQKEI
B2: phospho-Cav-1 (Cav-1 tyr14) (protein, UniProt P49817 1-178)
chain: MSGGKYVDSEGHLYTVPIREQGNIYKPNNKAMADEVTEKQVYDAHTKEIDLVNRDPKHLNDDVVKIDFEDVIAEPEGTHSFDGIWKASFTTFTVTKYWFYRLLSTIFGIPMALIWGIYFAILSFLHIWAVVPCIKSFLIEIQCISRVYSIYVHTFCDPLFEAIGKIFSNIRISTQKEI
modifications: phosphotyrosine at 14

Target: IGF-1 receptor β subunit (mouse (endogenous in 3T3-L1)) (UniProt Q60751)
Experiment: co-IP; 500 µg of 3T3-L1 lysate (RIPA buffer with 1% NP-40, 150 mM NaCl) precipitated with 5 µg anti-IGF-1Rβ antibody on a Catch and Release v2.0 spin column, 12 h at 4°C; serum-depleted cells with or without 100 µg/ml AGEs for 15 min; Western blots of the eluate

Row | Binder | binding
1 | B1 | binds
2 | B2 | binds
